Test results published in paper doi:10.1101/2024.07.17.603854.
No constants are given. Whether binding was seen depends on the method and setting. Binding seen in cells or lysates may run through a third protein. These calls come from enrichment with a bait or labelling near it, and not all partners need be listed. Tags and fused reporters may be left off the sequences shown. Blank lines part the entries; values can stand above or below the molecule they belong to.

Key:
[1] = target: T1, HA-tagged Cell division protein A (CdpA-HA) (Haloferax volcanii) (UniProt D4GTB2); experiment: affinity purification with mass spectrometry
T1 sequence: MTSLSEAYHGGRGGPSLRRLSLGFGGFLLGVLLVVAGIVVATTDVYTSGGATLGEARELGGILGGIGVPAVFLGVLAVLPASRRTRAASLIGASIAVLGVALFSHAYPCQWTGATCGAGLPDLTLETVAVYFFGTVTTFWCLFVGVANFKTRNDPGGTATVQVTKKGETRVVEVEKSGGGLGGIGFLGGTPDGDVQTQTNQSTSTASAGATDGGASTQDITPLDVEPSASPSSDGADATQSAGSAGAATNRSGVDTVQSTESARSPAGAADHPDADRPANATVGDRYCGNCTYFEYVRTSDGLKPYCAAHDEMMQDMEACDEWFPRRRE

[2] = target: T2, HA-tagged FtsZ2 (FtsZ2-HA) (Haloferax volcanii) (UniProt D4GSH7); experiment: affinity purification with mass spectrometry
T2 sequence: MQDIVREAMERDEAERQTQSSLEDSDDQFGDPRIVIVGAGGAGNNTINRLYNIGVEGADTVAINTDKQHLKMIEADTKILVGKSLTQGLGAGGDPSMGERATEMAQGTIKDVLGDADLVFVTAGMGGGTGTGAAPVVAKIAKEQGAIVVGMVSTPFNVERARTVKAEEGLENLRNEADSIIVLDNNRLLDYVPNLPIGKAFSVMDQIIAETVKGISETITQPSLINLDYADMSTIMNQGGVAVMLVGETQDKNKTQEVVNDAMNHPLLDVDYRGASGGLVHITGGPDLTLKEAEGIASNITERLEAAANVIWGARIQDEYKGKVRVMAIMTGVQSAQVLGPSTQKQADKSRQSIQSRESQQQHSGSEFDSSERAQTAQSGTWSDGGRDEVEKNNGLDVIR

Molecule: CdpB2 (from UniProt D4GTJ3)
- binding [1]: binds

Molecule: CdpB1 (from UniProt D4H036)
- binding [1]: binds

Molecule: small GTPase ArvA (from UniProt D4GYC9)
- binding [1]: binds

The next lines start with the values.

- binding [1]: binds
B1: actin-like protein volactin (protein, UniProt D4GU28 1-345)
chain: MAKGLDVGTMNILSASQDGSETVFVQQRNSFVEIDYSDMAEQMLSRSDVLHIRKDDKVYVVGDDALNFANIFGKETRRPMQHGILSSEESSAIPMIKLIIEQVVGSPSRPNERLFYSSPADPIDSDLSTLYHDKTLESMLGDMGYDPEPINEGMAVIYSELADNNFTGLGVSFGAGMTNICLAYYAVPVMQFSIARGGDWIDQQTAQATGTAVDKVTSIKEDDFQLDFRTDVGGVEGALSIYYENLLDYVIENIEREVDEEDIEEGLDVPVVVTGGTSSPEGFEELFEHHLEDSTIPFSVNEVRSIDRPLYSVARGSLVAARSEEESDGGASDPEPEAEAAPESN

- binding [2]: binds
B2: CetZ2 (protein, UniProt D4GTC1 1-360)
chain: MKTVLIGVGQAGGKLASALQSFDRQTGFGAVLDAVAVNTAKADLQSLPVETVLIGQDRVNGHGVGGDNELGAAVMESDQTEVMSALDGRVTAEAESIFVVAGLGGGSGSGGAPVLAKALAGVYDVPVYVLGILPGADEGALYQVNAGRSLKTVAREADAVLLVDNDAFRSAGESMSEGYDAINEAIARRVGLLLAAGEATEGVGESVVDTSEVINTLRSGGIAALGYASAEASPNAEDNINAVMSTTRRAVLTGTSLPDASDADAALVVIAGEPDTIPRKGVERARRWVEDETGSMQVRGGDFPLESGRLASLVLLGGVERSERVESFMERAREAIDKAETEPREDPKGMWHSDDLDDLL
